Reference: ChEMBL document CHEMBL3611981, “Discovery of potent nitrotriazole-based antitrypanosomal agents: In vitro and in vivo evaluation” (Bioorg Med Chem, 2015)

Sequences of proteins named here, by UniProt entry; tags and fusion partners are left off.
UniProt P10635, whole entry: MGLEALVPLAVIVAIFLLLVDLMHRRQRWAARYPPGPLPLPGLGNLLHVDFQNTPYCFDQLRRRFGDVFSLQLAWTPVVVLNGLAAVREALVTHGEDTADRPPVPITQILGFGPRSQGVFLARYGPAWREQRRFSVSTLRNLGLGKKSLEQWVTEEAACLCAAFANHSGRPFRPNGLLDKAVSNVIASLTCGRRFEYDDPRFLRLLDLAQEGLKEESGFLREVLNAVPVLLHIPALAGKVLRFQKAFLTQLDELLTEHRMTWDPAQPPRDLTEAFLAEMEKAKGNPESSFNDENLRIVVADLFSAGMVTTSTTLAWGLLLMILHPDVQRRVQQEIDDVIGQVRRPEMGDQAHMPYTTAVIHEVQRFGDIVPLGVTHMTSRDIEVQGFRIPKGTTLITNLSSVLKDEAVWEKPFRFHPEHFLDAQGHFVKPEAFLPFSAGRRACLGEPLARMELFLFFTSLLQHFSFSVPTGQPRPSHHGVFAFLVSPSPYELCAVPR
UniProt P08684, whole entry: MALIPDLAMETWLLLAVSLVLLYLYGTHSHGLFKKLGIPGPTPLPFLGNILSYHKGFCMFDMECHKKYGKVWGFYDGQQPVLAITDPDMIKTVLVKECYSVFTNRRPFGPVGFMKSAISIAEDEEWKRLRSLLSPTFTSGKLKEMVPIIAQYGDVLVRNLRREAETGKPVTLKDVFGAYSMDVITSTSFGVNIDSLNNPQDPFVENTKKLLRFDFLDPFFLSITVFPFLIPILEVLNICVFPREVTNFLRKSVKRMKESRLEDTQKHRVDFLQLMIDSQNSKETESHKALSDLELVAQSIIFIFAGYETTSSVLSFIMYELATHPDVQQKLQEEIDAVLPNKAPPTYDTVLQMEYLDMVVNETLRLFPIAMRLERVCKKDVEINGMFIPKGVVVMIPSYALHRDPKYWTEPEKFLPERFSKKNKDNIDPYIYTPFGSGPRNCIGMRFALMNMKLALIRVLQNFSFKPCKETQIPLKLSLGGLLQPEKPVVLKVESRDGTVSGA
UniProt P11712, whole entry: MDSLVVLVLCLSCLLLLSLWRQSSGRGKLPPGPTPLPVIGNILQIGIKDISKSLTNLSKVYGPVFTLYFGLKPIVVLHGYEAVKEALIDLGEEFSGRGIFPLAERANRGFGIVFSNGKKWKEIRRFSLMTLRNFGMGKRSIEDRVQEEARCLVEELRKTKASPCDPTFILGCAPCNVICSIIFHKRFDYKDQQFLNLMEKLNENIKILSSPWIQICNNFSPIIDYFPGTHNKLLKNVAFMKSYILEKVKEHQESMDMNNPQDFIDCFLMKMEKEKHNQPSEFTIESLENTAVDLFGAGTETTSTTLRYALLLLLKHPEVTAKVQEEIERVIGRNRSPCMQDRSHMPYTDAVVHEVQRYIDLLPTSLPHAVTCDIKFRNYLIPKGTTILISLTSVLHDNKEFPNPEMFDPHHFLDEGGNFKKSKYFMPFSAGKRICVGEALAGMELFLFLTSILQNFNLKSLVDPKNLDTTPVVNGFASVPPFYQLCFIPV
UniProt P33261, whole entry: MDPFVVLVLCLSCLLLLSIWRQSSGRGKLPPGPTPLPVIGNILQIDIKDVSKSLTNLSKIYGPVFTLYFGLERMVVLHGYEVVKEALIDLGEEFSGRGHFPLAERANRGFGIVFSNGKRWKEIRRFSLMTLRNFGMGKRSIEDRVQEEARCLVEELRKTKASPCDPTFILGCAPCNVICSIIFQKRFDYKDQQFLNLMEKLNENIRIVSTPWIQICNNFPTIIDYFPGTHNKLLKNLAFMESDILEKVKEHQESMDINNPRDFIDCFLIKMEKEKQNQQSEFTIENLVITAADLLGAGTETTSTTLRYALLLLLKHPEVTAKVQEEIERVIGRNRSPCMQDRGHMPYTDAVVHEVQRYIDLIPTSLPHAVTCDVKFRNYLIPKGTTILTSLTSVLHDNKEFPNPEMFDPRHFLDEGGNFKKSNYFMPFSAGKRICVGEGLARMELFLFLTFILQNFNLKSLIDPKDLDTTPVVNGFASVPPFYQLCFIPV

How the values were obtained:
Cytochrome P450 2D6 = Cytochrome P450 2D6 (Homo sapiens, UniProt P10635); assay: Inhibition of CYP2D6 (unknown origin)
Cytochrome P450 3A4 = Cytochrome P450 3A4 (Homo sapiens, UniProt P08684); assay: Inhibition of CYP3A4 (unknown origin)
Cytochrome P450 2B6 = target: T1, Cytochrome P450 2B6 (Homo sapiens, UniProt P20813); assay: Inhibition of CYP2B6 (unknown origin)
T1 sequence (P20813 whole entry): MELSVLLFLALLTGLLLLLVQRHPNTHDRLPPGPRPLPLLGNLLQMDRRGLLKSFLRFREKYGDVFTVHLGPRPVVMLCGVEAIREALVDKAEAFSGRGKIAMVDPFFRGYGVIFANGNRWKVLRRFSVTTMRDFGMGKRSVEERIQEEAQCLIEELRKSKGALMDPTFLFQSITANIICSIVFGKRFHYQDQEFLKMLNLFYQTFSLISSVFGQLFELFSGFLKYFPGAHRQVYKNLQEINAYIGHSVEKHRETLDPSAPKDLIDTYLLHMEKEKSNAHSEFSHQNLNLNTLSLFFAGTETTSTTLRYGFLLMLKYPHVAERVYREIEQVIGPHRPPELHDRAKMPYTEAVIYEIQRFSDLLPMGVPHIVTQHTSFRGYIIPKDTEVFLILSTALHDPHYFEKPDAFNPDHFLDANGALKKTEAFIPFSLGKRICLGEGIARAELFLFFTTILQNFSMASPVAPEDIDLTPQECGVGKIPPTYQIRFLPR

Cytochrome P450 2C9 = Cytochrome P450 2C9 (Homo sapiens, UniProt P11712); assay: Inhibition of CYP2C9 (unknown origin)
Cytochrome P450 2C19 = Cytochrome P450 2C19 (Homo sapiens, UniProt P33261); assay: Inhibition of CYP2C19 (unknown origin)

Measured: IC50

O=C(Cn1cnc([N+](=O)[O-])n1)Nc1cccc(-c2ccccc2)c1
> 20 µM: Cytochrome P450 2D6 | Cytochrome P450 3A4 | Cytochrome P450 2B6 | Cytochrome P450 2C9 | Cytochrome P450 2C19
